Test results taken from PubChem BioAssay AID445 (National Center for Advancing Translational Sciences (NCATS), 2006).
This is one part of the list. The main result of the screen is listed elsewhere. These columns were measured beside it and carry no call. Most of these compounds were active or inconclusive in the main read-out, so they are no random draw. Words in brackets tell the shape of the fitted curve; partial curves, single points and poor fits give uncertain potencies. *1 amine or outer side, *2 acyl side, *3 side chain or, on linkers, in order; H or OH if unused. Where a SMILES comes first, the peptide text is derived from it. Bridges are numbered along the chain shown (N, C = ends). Roman numbers before positions name the chains, in order. [ ]: non-standard residue; d: D form. Actinocin(9to1) = Cc1c2oc3c(C)ccc(C(=O)[*:1])c3nc-2c(C(=O)[*:2])c(N)c1=O; NMeV = CN[C@H](C(=O)O)C(C)C; Sar = CNCC(=O)O

Assay: IkB Signaling
Conditions: ABC-DLBCL IkBa-CBG/CBR dual luciferase ratio (green luciferase fused to IkBa over red control in OCI-Ly3 lymphoma cells), 4 h; measured here: control luc red channel unless noted
In short: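 Curves were fitted separately to fusion (green), unfused (red) and ratio luminescence, then classed by r2, magnitude and activity. Cells: OCI-Ly3, 4 h compound plus doxycycline at 37C; 10 uM MG-132 defined full response.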
For `Cc1ccc2nc(NC(=O)CSc3nccn3Cc3ccc(F)cc3)sc2c1`, the AC50 was 39.8 µM [falling, single point].
For `O=C(O)c1ccc(Cn2c(SCc3ccc(F)cc3)nc3ccncc32)cc1`, the AC50 was 12.6 µM [falling, partial curve].
In the case of `Cc1cc(NC(=O)CS(=O)(=O)c2cn(Cc3cccc(F)c3)c3ccccc23)no1`, the AC50 is reported as 10 µM [falling, partial curve].
With `COc1ccc(OC)c(S(=O)(=O)NCC(c2cccs2)S(=O)(=O)c2ccc(F)cc2)c1` (stereo not drawn) the AC50 was 25.1 µM [falling, partial curve].
For `Cc1ccccc1NC(=O)c1sc2nc3c(cc2c1N)CN(Cc1ccccc1)CC3`, the AC50 was 3.16 µM [falling, partial curve].
With `CCOC(=O)c1ccc(NC(=O)CCc2nc(-c3ccccc3)no2)cc1` the AC50 was 15.8 µM [falling, partial curve].
With `COc1cccc(N2CCN(C(=O)CN3CCSc4ccccc43)CC2)c1` the AC50 was 7.94 µM [falling, partial curve].
With `O=C(O)CCc1nc(-c2ccc(Cl)cc2)no1` the AC50 was 5.01 µM [falling, partial curve].
For `COc1ccc(CC(=O)N2CCc3cc(OC)c(OC)cc3C2COc2ccc3c(C)cc(=O)oc3c2)cc1OC` (stereo not drawn), the AC50 was 0.1 µM [falling, partial curve].
For `Cc1c2oc3c(C)ccc(C(=O)N[C@@H]4C(=O)N[C@H](C(C)C)C(=O)N5CCC[C@H]5C(=O)N(C)CC(=O)N(C)[C@@H](C(C)C)C(=O)O[C@@H]4C)c3nc-2c(C(=O)N[C@@H]2C(=O)N[C@H](C(C)C)C(=O)N3CCC[C@H]3C(=O)N(C)CC(=O)N(C)[C@@H](C(C)C)C(=O)O[C@@H]2C)c(N)c1=O` (I: T[dV]P[Sar][NMeV] / II: T[dV]P[Sar][NMeV]; ester I:1-I:C, II:1-II:C; linker I:N-II:N via Actinocin(9to1)), the AC50 was 0.001 µM [falling, full curve].
In the case of `Cc1cc2c(cc3c(SCC(=O)Nc4ccc(Cl)cc4F)nncn32)o1`, the AC50 is reported as 10 µM [falling, partial curve].
In the case of `COc1ccc(CCN2C(=O)C3C4C=CC(C4)C3C2=O)cc1OC` (stereo not drawn), the AC50 is reported as 31.6 µM [rising, single point] [measured here: IkB-luc green channel].
In the case of `CCc1cccc(C)c1Nc1c(-c2ccsc2)nc2ncccn12`, the AC50 is reported as 39.8 µM [falling, single point].
With `CCOc1c(Cl)cc(C(=O)N(Cc2ccc(N(C)C)cc2)Cc2ccco2)cc1Cl` the AC50 was 12.6 µM [falling, partial curve].
For `COc1ccc(CNC(=O)C2CCCN(c3nnc(C)c4c(C)n(-c5ccc(C)cc5)nc34)C2)cc1` (stereo not drawn), the AC50 was 12.6 µM [falling, partial curve].
For `CCC(Sc1nc2ncccc2o1)C(=O)Nc1ccc(OC)c(OC)c1` (stereo not drawn), the AC50 was 10 µM [falling, partial curve].
With `CCOc1ccccc1N(C)C(=O)c1c2c(nc3ccccc13)C(=O)N(C1CCCCC1)C2` the AC50 was 15.8 µM [falling, partial curve].
With `Cc1cc(C)cc(NC(=O)c2c(C)oc3nc(C)nc(N4CCCC4)c23)c1` the AC50 was 15.8 µM [falling, partial curve].
With `CCc1ccc(OCC(=O)Nc2ncn[nH]2)c(Br)c1` the AC50 was 1 µM [rising, full curve].
In the case of `O=C(Nc1nc(-c2ccccc2)cs1)c1cccs1`, the AC50 is reported as 10 µM [falling, partial curve].
With `COc1cccc(Cn2c(-c3nonc3NC(C)=O)nc3ccccc32)c1` the AC50 was 25.1 µM [falling, single point].
For `COc1cccc(-c2noc(-c3cc(C(C)C)[nH]n3)n2)c1OC`, the AC50 was 0.316 µM [rising, full curve].
For `COc1ccccc1CNC(=O)CCNS(=O)(=O)c1ccc2c(c1)oc(=O)n2C`, the AC50 was 31.6 µM [falling, single point].
In the case of `COc1ccc(-c2noc(C)c2-c2ccc3ccccc3n2)c(O)c1`, the AC50 is reported as 20 µM [falling, partial curve].
For `O=C(COc1ccc(F)cc1)NCc1ccc2c(c1)CCN2C(=O)c1ccccc1`, the AC50 was 39.8 µM [falling, single point].
For `CNC(=O)c1ccc2c(c1)N(Cc1ccccc1Cl)C(=O)c1ccccc1S2`, the AC50 was 25.1 µM [falling, partial curve].
With `Cc1cccc(NC(=O)c2sc3nc(-c4cc5ccc(O)cc5oc4=O)[nH]c(=O)c3c2C)c1` the AC50 was 0.794 µM [falling, full curve].
With `O=C(Cn1c(=O)nc(-c2ccccc2F)c2cc(Cl)ccc21)NCCCc1ccccc1` the AC50 was 25.1 µM [falling, partial curve].
With `Cc1nc(-n2nc(C)c(CCC(C)C)c2C)sc1C(=O)Nc1cccc(Cl)c1` the AC50 was 12.6 µM [falling, partial curve].
In the case of `COc1ccc(Cl)cc1NC(=O)Cn1c(=O)c2ccccc2n2nncc12`, the AC50 is reported as 31.6 µM [falling, partial curve].
In the case of `Clc1ccc(NCc2nc3ccccc3n2CCOc2ccccc2)cc1`, the AC50 is reported as 0.1 µM [falling, full curve].
With `Cc1cccc(-n2nnnc2SC(C)C(=O)NCCC2=CCCCC2)c1` (stereo not drawn) the AC50 was 10 µM [falling, partial curve].
In the case of `O=C(CCS(=O)(=O)c1cc(Br)cc2c1N(C(=O)C1CC1)CC2)NCc1ccco1`, the AC50 is reported as 25.1 µM [rising, single point] [measured here: IkB-luc green channel].
With `CCN(C(=O)CSc1nc2ccccc2nc1Cc1ccc(F)cc1)c1cccc(C)c1` the AC50 was 39.8 µM [falling, partial curve].
In the case of `CC(=O)N1CCc2cc(S(=O)(=O)NC3CCCc4ccccc43)ccc21` (stereo not drawn), the AC50 is reported as 20 µM [falling, partial curve].
With `O=C(O)Cn1nnn(-c2ccccc2)c1=S` the AC50 was 10 µM [falling, partial curve].
In the case of `COc1ccc(C(=O)Nc2nc3ccccc3n2CCOc2ccc(Cl)cc2)cc1`, the AC50 is reported as 2 µM [falling, full curve].
For `CCOc1ccc(N(CC)C(=O)CCc2nc(-c3ccccc3F)no2)cc1`, the AC50 was 39.8 µM [falling, single point].
